Earlier results as cited in US20230414634A1, “METHODS FOR TREATING CHOLESTATIC PRURITUS” (GlaxoSmithKline Intellectual Property (No.2) Limited, priority 2020, published 2023).
For at least one compound, name, drawing or mass did not settle the structure.

Tested on: pruritus in Primary Biliary Cholangitis
Details: in vivo; cited from earlier work

Question: Which “pruritus compared with placebo” value does the source give for `CC(C)(Oc1ccc(CCNC(=O)c2ccc(Cl)cc2)cc1)C(=O)O` [Bezafibrate] here?
Answer: Its value is “reduction”.
